Assay results from the supplement of paper PMC3334620.
Whole data set: some 33,000 sequences, median “E-score (-0.5 to 0.5)” near -0.015, cut for the highest 2% near 0.3. This is one part of the list.

biological target: T1, Abf1 (UniProt P14164); assay: PBM E-score (8-mer binding enrichment) (E-score (-0.5 to 0.5)); higher = stronger / more preferred TF binding; conditions: protein concentration: 200 nM; construct: GST-full length
T1 sequence: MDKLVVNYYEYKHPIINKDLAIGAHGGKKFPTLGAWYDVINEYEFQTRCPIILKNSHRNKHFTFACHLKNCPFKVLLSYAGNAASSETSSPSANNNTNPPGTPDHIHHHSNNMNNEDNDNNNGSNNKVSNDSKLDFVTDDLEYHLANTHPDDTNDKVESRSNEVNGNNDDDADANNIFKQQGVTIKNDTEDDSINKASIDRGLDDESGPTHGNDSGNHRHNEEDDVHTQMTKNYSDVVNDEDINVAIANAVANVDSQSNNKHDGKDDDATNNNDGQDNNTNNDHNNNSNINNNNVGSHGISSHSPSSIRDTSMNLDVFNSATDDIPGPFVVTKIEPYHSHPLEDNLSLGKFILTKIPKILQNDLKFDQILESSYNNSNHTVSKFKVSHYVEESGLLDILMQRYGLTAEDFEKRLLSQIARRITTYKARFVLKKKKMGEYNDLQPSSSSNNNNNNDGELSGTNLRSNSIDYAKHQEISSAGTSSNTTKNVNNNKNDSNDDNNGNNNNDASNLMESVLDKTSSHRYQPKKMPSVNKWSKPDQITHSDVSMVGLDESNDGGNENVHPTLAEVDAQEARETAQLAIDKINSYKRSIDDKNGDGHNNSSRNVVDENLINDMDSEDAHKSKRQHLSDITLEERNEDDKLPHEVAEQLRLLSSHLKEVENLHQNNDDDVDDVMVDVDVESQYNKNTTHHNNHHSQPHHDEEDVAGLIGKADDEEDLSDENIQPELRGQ
Method in brief: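 Universal all-10-mer Agilent arrays, double-stranded by primer extension on fresh or once-stripped slides, were probed with about 100-200 nM GST-tagged yeast transcription factors made by PURExpress. Fluorescent anti-GST detected bound protein, and masliner normalised the scans. E-scores from the Universal PBM Analysis Suite were given to each ungapped eight-base word pooled with its reverse complement.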

Sequence	PBM E-score
CTCACGGC	0.142
ATTGTACC	0.0665
AGTCTTAG	-0.112
CAGTTAGG	-0.0487
GGCACTTA	0.023
AAATAGGG	-0.079
ACCAGGGT	-0.205
CAGAATGG	-0.00418
GGGTAAAC	-0.0805
GAACAGTA	-0.0158
ACCTTGAG	-0.019
CCGGCCCC	-0.3
GTTATACA	0.0621
GTGAATCA	-0.018
AACTGTAC	0.0409
AGCGAATA	0.202
TCAATGCA	0.0463
CTGATGTA	-0.129
AAATGTGT	0.111
AGACGTCT	-0.0435
ACTCCTCG	0.064
ACAGTGCG	-0.236
GAGCGATA	0.223
CTAGTTGC	0.0763
AAGAATAT	0.00319

2 entries from above, as a markdown table.

| Sequence | PBM E-score |
| --- | --- |
| CTAGTTGC | 0.0763 |
| AAGAATAT | 0.00319 |

(list continues)

Sequence	PBM E-score
GCGCACAA	-0.0646
CGTCCCCC	-0.0818
ACGGTGTA	0.147
AGTCGTTA	0.197
GCGGAAAC	-0.206
ATACCATC	-0.131
CCTTGTTA	-0.0617
ATCTGATG	0.0857
ATAATCGG	0.21
GTATCTAA	0.158
TCCGTACA	0.368
GAACATAC	0.114
ACAAAAAC	0.0631
GGCAACAC	-0.224
AGGCAGTA	0.0109
TAACGAAA	0.243
GACTACAA	0.0332
ACGAGCGA	0.122
CAGGAGGA	-0.326
GAATGGCA	-0.0593
CGCAGATA	0.0501
ATCTCGAC	0.067
CACAGCGA	0.127
CCGTTACC	0.0765
ATACGCTA	-0.0566

Sequence	PBM E-score
AGACGGAG	-0.0967
GATATGAA	0.191
GTCGAATA	0.0127
CATAATGG	-0.041
ATCTTAGA	0.08
ATTATGTA	0.239
ACTCCCCC	-0.34
ACTTGAAC	0.0546
GTGACGCA	0.103
AAGTATAC	0.0628
ACGTCTGG	-0.0845
CACTAATG	0.134
ACCAGTCT	-0.188
ACTCTTCA	0.0659
ACCGGTTG	0.0539
CGTCTCTC	0.162
AACACGGC	0.122
AGTCTGGG	-0.236
AACTCTTG	0.102
ATAAGGCC	-0.0789
AGCAATGC	-0.0441
AGTCGATA	0.0594
AGATGGGA	-0.229
AGACAGAT	-0.00326
AAACGAAG	0.108

Sequence	PBM E-score
CGACGTTC	0.0472
GATCAAAA	0.0756
GCGACTCC	-0.251
TGTCATAA	0.237
CTCTGCAA	-0.0134
ATTCCTAA	0.12
TGGCTAAA	0.0139
GTAAAAAA	0.109
GTGCGCCA	-0.0984
AGGCGGAC	-0.314
AGTTACGA	0.296
CGACATGC	0.022
CGAGGCGA	-0.0356
AGCCCTCC	-0.235
AATACACG	0.0382
AACTTTAG	0.0369
AAGCTCAA	-0.0707
CTCTCTTC	-0.0447
GCTGAAGC	-0.182
GATCTTAC	0.0982
GATATTAA	0.162
AGCGAGCG	0.0666
CTTCAAGA	0.078
GACACGTC	0.153
GATCTTAA	0.16

Random excerpt: 7 entries already listed.
Sequence	PBM E-score
AACTGTAC	0.0409
TAACGAAA	0.243
ACTCTTCA	0.0659
GACTACAA	0.0332
AGCCCTCC	-0.235
GAGCGATA	0.223
TCCGTACA	0.368

A portion from the list above, as a working copy:
Sequence	PBM E-score
AGTCGATA	0.0594
AGATGGGA	-0.229
AGACAGAT	-0.00326

Next part

Sequence	PBM E-score
ACGCTCCG	-0.0758
AGGCTTCG	-0.06
ACGAGATC	0.218
GCACGCGC	-0.0247
AGACTGAC	-0.172
CTTGCCTA	-0.0121
AGTAATTG	0.0426
GTTAAGGA	0.0551
ACTGGGCT	-0.175
ATTGCCTA	-0.243
CGCGTCCC	-0.0883
CACCGGCA	-0.0788
CTGCGTCA	-0.122
AGTTCGTC	0.164
ATGTATAG	-0.054
AGAGCGCA	-0.177
AACTCGAC	-0.0456
ATCCCAAT	0.0553
AATTTGGG	0.11
AGTGCCTA	-0.0364
ACTGCGAG	-0.13
AAGAGGGT	-0.141
AGTCAATC	0.108
CGGGACGC	-0.247
AAGAGCTC	0.143

Sequence	PBM E-score
CTAGCATC	-0.15
ACAACTGT	-0.0665
AAGTGCAG	-0.266
CACCTAGG	-0.23
ACCCGATC	0.00161
ACTACACC	-0.0398
AGGTCTCC	-0.081
CAATAGAA	-0.0514
ATCTCCTA	-0.212
CTGAGCCC	-0.0558
CTCTCTAA	-0.0786
ATGGGGGG	-0.367
GTGGCAAA	-0.0476
ACTACGGG	-0.0138
ACGTGCAC	0.112
GCCTGAGC	-0.144
AGGAACGC	-0.183
GAGCATTA	0.00142
CTTTCGGA	-0.0684
AGGGTTAA	-0.104
CTGAGGAA	-0.227
GGTCTTGA	-0.151
CTGCTATC	0.093
AAAGCCAG	-0.24
AATTCGGG	-0.0203

Sequence	PBM E-score
GGCCGCTA	-0.151
ACAACCCG	-0.00349
AAAACGCA	0.00195
ACAGAATG	0.0944
ACATTTGC	0.0282
AGCAAGTA	0.0322
ACCTGATG	-0.104
AATGGACC	0.104
ATAGTATC	0.25
CAGCCAGG	0.00939
ACGCCATA	-0.0497
CCTCTAGC	-0.25
CCGCATGA	-0.0321
CCCCGTCC	-0.136
AAGCCGCG	-0.0806
GAGAATAC	0.165
CATGACAA	0.238
TCTTGAAA	0.275
CTAGGCCA	-0.215
AACACGTG	0.241
GGTCTTAA	-0.16
ACTGCCAG	-0.0989
